Reference: paper PMC12023400
Results are given in words; binding and its absence hold for the method and conditions named. Binding seen in cells or lysates may run through a third protein. Some entries that bind do so weakly or less than the wild type. Tags and fused reporters may be left off the sequences shown.

Chains of the proteins cited; added tags and fusions are not shown.
UniProt Q13547: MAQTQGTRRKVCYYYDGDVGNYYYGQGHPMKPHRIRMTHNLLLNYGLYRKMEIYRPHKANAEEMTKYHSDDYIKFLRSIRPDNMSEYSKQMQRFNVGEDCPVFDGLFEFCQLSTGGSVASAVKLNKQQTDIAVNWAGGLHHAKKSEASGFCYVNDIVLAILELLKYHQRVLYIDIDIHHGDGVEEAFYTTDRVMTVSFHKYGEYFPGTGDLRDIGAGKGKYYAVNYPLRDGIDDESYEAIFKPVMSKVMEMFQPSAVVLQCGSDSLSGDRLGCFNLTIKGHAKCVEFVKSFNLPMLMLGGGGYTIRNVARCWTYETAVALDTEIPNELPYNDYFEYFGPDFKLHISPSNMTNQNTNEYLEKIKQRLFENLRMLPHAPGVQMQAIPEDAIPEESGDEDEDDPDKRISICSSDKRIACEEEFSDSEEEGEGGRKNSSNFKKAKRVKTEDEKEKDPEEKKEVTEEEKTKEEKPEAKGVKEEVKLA

B1: Myc-Tas (prototype foamy virus Tas protein) (protein, UniProt P14353 1-300)
chain: MDSYEKEESVASTSGIQDLQTLSELVGPENAGEGELTIAEEPEENPRRPRRYTKREVKCVSYHAYKEIEDKHPQHIKLQDWIPTPEEMSKSLCKRLILCGLYSAEKASEILRMPFTVSWEQSDTDPDCFIVSYTCIFCDAVIHDPMPIRWDPEVGIWVKYKPLRGIVGSAVFIMHKHQRNCSLVKPSTSCSEGPKPRPRHDPVLRCDMFEKHHKPRQKRPRRRSIDNESCASSSDTMANEPGSLCTNPLWNPGPLLSGLLEESSNLPNLEVHMSGGPFWEEVYGDSILGPPSGSGEHSVL
B2: Flag-Tas (prototype foamy virus Tas protein) (protein, UniProt P14353 1-300)
chain: B1 chain
B3: 3HA-SAP30 (human Sin3A associated protein 30) (protein, UniProt O75446 1-220)
chain: MNGFTPDEMSRGGDAAAAVAAVVAAAAAAASAGNGTGAGTGAEVPGAGAVSAAGPPGAAGPGPGQLCCLREDGERCGRAAGNASFSKRIQKSISQKKVKIELDKSARHLYICDYHKNLIQSVRNRRKRKGSDDDGGDSPVQDIDTPEVDLYQLQVNTLRRYKRHFKLPTRPGLNKAQLVEIVGCHFRSIPVNEKDTLTYFIYSVKNDKNKSDLKVDSGVH
B4: endogenous SAP30 (protein, UniProt O75446 1-220)
chain: B3 chain

Experiments:
[1] = target: T1, 3HA-SAP30 (human Sin3A associated protein 30) (human) (UniProt O75446); experiment: co-IP; HEK293T cells transfected with Flag-Tas, Flag-HDAC1 and SAP30 truncations, 48 h; IP with HA antibodies (3HA-SAP30 forms as bait); blot with Flag and HA antibodies
T1 sequence: B3 chain

Flag-HDAC1 = Flag-HDAC1 (UniProt Q13547); experiment: co-IP; HEK293T cells transfected with Myc-Tas and Flag-HDAC1, 3HA-SAP30 or empty vector, 48 h; IP with Flag antibodies (Flag-HDAC1 as bait); blot with Myc, Flag and HA antibodies
[2] = target: T2, Flag-Tas (prototype foamy virus Tas protein) (prototype foamy virus) (UniProt P14353); experiment: co-IP; HEK293T cells transfected with Flag-Tas (with or without 3HA-SAP30), 48 h; IP with Flag antibodies and Protein A beads in IP lysis buffer (50 mM Tris HCl pH 8.0, 150 mM NaCl, 1% NP40), 4 °C; blot with HA, SAP30 and Flag antibodies
T2 sequence: B1 chain

Molecule	binding [1]	binding (Flag-HDAC1)	binding [2]
Flag-HDAC1 (from UniProt Q13547 1-482) (enzyme)	binds		
B1		binds	
B2	binds		
B3		binds	binds
B4			binds
